The text below walks through data of US20220242969A1 (FREDAX, published 2022).

The chains behind the UniProt entries cited, without tags or fusion partners. Where a name states a change or a piece, a line headed by the entry shows the natural chain unless it says otherwise.
UniProt P07288: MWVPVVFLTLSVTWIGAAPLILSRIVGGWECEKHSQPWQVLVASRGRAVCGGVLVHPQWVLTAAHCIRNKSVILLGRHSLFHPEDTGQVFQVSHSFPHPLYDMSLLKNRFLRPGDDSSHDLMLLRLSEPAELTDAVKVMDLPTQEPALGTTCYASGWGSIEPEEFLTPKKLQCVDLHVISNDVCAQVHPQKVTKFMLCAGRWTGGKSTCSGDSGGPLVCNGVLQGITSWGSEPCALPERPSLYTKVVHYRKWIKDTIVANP

The assay addresses T1, prostate specific antigen (PSA) (human, UniProt P07288 25-261, limits assumed).
T1 construct: The antigen of the SPR study is only called 'PSA' (169 ug/ml, provided by Diaprost AB, Mw 30 000 Da); also called kallikrein III
The assay can be described thus: SPR (Biacore), worded comparison with the parent murine antibody m5A10.

These are yes or no findings as the source states them, for the method shown. Some results given as binding are weak or reduced against the parent protein; the word gives no strength.

B1: humanised monoclonal antibody 5A10 (h5A10) (antibody, human IgG1, kappa, V domains shown)
VH: QVTLKESGPALVKPTQTLTLTCTFSGFSLSTTGMGVSWIRQPPGKALEWLAHIYWDDDKRYSTSLKTRLTISEDSSKNQVVLTMTNMDPVDTATYYCARKGYYGYFDYWGQGTLVTVSS
VL: DIQMTQSPSSLSASVGDRVTVTCRASQNVNTDVAWYQQKPGKAPKALIFSTSYLQSGVPSRFSGSGSGTDFTLTISSLQPEDFATYYCQQYSNYPLTFGQGTKVEIKR
notes: also called hu5A10 (141203); h5A10 (141203)
In the case of B1, the binding entry is given as “binds”.
